Values quoted from earlier work, collected in paper PMC9736291 (International Journal of Molecular Sciences, 2022).

Conditions: cited from earlier work

Question: Which “Vu,brain” value does the source give for `CN1CC[C@]23c4c5ccc(O)c4O[C@H]2[C@@H](O)C=C[C@H]3[C@H]1C5` [morphine] here?
Answer: 2.1 mL/g brain
